In patent publication US20240327540A1:
No constants are given. Whether binding was seen depends on the method and setting. Some entries that bind do so weakly or less than the wild type.

Protein sequences, listed by entry. Tags and fused reporters are not part of them. Lines headed by an entry give the natural chain unless they say otherwise; changes in a name come on top.
UniProt Q9UNK4: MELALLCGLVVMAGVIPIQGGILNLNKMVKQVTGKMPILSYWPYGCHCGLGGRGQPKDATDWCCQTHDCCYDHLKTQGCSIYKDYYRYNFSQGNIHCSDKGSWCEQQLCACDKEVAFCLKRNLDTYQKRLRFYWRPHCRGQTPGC

How the values were obtained:
human PLA2G2D (human) [1] = biological target: human PLA2G2D (human) (UniProt Q9UNK4); assay: assay not given
human PLA2G2D (human) [2] = biological target: human PLA2G2D (human) (UniProt Q9UNK4); assay: ELISA / flow cytometry screening of hybridoma antibodies

Binder | binding (human PLA2G2D (human) [1]) | binding (human PLA2G2D (human) [2])
44.19A6.A10 (antibody, V domains shown) VH: QVTLKESGPGILQSSQTLSLTCSFSGFSLTTSGMGVGWIRQPSGKGLEWLAHIYWDDDKRYNPSLKSRLTISKDTSRNQVFLKITSVDTTDTATYYCARRGPGTWYFDVWGTGTTVTVSS VL: QIVLTQSPAIMSASPGEKVTISCSASSSVSYMYWYQQKPGSSPKPWIYRTSNLASGVPARFSGSGSGTSYSLTISSMEAEDAAAYYCQQYHSSPLTFGAGTKLELK | binds | binds
44.7F10.F2 (antibody, V domains shown) VH: QVTLKESGPGILQSSQTLSLTCSFSGFSLSTSGMGVSWIRQPSGKGLEWLTHIYWDDDKRYNPSLKSRLTISKDTSRNQVFLKITSVDTADTATYYCARRAVKDWYFDVWGTGTTVTVSS VL: QIVLTQSPAIMSASPGEKVTISCSASSSVSYMYWYQQKPGSSPKPWIYRTSNLASGVPARFSGSGSGTSYSLTISSMEAEDAATYYCQQYHSYPPTFGSGTKLEIK | binds | binds
44.8A6.A9 (antibody, V domains shown) VH: QVILKESGPGILQSSQTLSLTCSFSGFSLSTSGMGVSWIRQPSGKGLEWLAHIYWDDDKRYNPSLKSRLTISKDTSRNQVFLKVTSVDTTDTATYYCARRASGDYSNFGFAYWGRGTLVTVSA VL: QIVLTQSPAIMSASPGEKVTISCSASSSVSYMYWYQQKPGSSPKPWIYRTSILASGVPARFSGSGSGTSYSLTISSMEAEDAATYYCQQYHSYPPTFGGGTKLEIK | binds | binds
48.55A7.A10 (antibody, V domains shown) VH: EVQLVESGGGLVQPGRSLKLSCAASGFSFNDYNMAWVRQAPTKGLEWVASISTGGANTYCRDSVKGRFTLSRDNAKNTLYLQMDSLKSEDTATYYCARHDTIRVDAWGQGASVTVSS VL: SYELIQPPSASVTLENTVSITCSGDELSNKYAHWYQQKPDKTILEVMYKDSERPSGISDRFSGSSSGTTAILTIRDAQAEDEADYYCLSTYSDDDLPVFGGGTKLTVL | binds | binds
48.9C4.E4 (antibody, V domains shown) VH: EVRLVESGGGLVQPGRSLKLSCAASGFTFNDYNMAWVRHPPTKGLEWVASISTGGDNTYCRDSVKGRFTLSRDNAKNTLYLQMDSLKSEDTATYYCVRHDTIRVDAWGQGASVTVSS VL: SYELIQPPSASVTLENTVSITCSGDELSNKYAHWYQQKPDKTILEVMYKDSERPSGISDRFSGSSSGTTAILTIRDAQAEDEADYYCLSTYSDDDLPVFGGGTKLTVL | binds | binds
44.96D4.C4 (antibody, V domains shown) VH: QVTLKESGPGILQSSQTLSLTCSFSGFSLSTSGMGVSWIRQPSGKGLEWLAHIYWDDDKRYNPSLKSRLSISKDTSRNQVFLKITSVDTVDTATYYCARRESKYFYFDYWGQGTTLTVSS VL: QIVLTQSPSIMSASPGEKVTISCSASSSVSYMYWYQQKPGSSPKPWIYRTSNLASGVPARFSGSGSGTSYSLTISSMEAEDAATYYCQQYHSYPPTFGSGTKLEIK | binds | binds
44.101H5.B4 (antibody, V domains shown) VH: QVTLKESGPGILQSSQTLSLTCSLSGFSLSTSGMGVSWIRQPSGKGLEWLAHIYWDDDKRYNPSLKSRLTISKDTSRNQVFLKITSVDTADTATYYCARRESRYFYFDYWGQGATLTVSS VL: QIVLTQSPAIMSASPGEKVTISCSASSSVSYMYWYQQKPGSSPKPWIFRTSNLASGVPARFSGSGSGTSYSLTISSMEAEDAATYYCQQYHSYPPTFGSGTKLEIK | binds | binds
44.102H3.E12 (antibody, V domains shown) VH: QVTLKESGPGILQSSQTLSLTCSFSGFSLSTSGMGVSWIRQPSGKGLEWLAHIYWDDDKRYNPSLKSRLTISKDTSRNQVFLKITNVDTADTATYFCARRASVDFYFDYWGQGSNLTVSS VL: QIVLTQSPAIMSASPGEKVTISCSAGSSVSFMYWYQQKPGSSPKPWIYRTSNLASGVPARFSGSGSGTSYSLTISSMEAEDAATYYCQHYHSYPPTFGGGTKLEIK | binds | binds
48.4B12.F8 (antibody, V domains shown) VH: QVQLKESGPGLVQPSQTLSLTCTVSGFSLTNNGVSWVRQPPGKGLEWIAAISSGGSTYYNSDLKSRLSIGRDTSKSQVFLEMNSLQTEDTAIYFCTRVGDDRFDYWGQGVMVTVSS VL: SYELIQPPSASVTLENTVSITCSGDELSNKYVHWYQQKPDKTILEVMYKDSERPSGISDRFSGSSSGTTAILTIRDAQAEDAADYYCLSTYCDDDLPVFGGGTKLTVL | binds | binds
47.17B2 (antibody, V domains shown) VH: QVTLKESGPGILQSSQTLSLTCSFSGFSLNTSPLGVSWIRQPSGKGLEWLAHIYWDDDKRYNPSLQNRLTISKDTSRNQVFLKISSVDTADTATYYCARRDGSNFYFDYWGQGTTLTVSS VL: QIVLTQSPAIMSASPGEKVTISCSASSTVRYIYWYYQKPGSSPTPWIYRTSNLAFGVPARFSGSGSGTSYSLTISSMEAEDAATYYCQQYHSFPLTFGAGTKLELK | binds | binds
44.92F6.C9 (antibody, V domains shown) VH: QVTLKESGPGILQSSQTLSLTCSFSGFSLSTSPMGVSWIRQPSGKGLEWLAHIYWDDDKRYNPSLKSRLTISRDTSRNQVFLKITTVDTADTATYFCARRRGDSFYFDYWGQGTTLTVSS VL: QIVLTQSPAIMSASPGEKVTISCSASSSVSYMYWYQQKPGSSPKPWIYRTSNLASGVPARFSGSGSGTSYSLTISSMEAEDAATYYCQQYHSYPLTFGAGTKLELK | binds | binds
47.17G1.E12 (antibody, V domains shown) VH: QVTLKESGPGILQSSQTLSLTCSFSGFSLSTSRMGVSWIRQPSRKGLEWLAHIYWDDDKRYNPSLKSRLTISKDTSRNQVFLRINNVDTADTATYYCARRALYDYGADFYFDVWGTGTTVTVSS VL: QIVLTQSPAIMSAFPGEKVTISCSASSSVSYMYWYQQKPGSSPKPWIYRTSNLASGVPARFSGSGSGTSYSLTISSMEAEDAATYYCQQYHTYPLTFGAGTKLELK | binds | binds
47.25C3.C5 (antibody, V domains shown) VH: QVTLKESGPGILQSSQTLSLTCSFSGFSLSTSRMGVSWIRQSSRKGLEWLAHIYWDDDKRYDPSLKSRLTISKDTSRNQVFLKITSVDTADTATYYCARRALSDYGSDFYFDVWGTGTTVTVSS VL: QIVLTQSPAIMSASPGEKVTISCSASSIVSYMYWYQQKPGSSPKPWIYRTSTLASGVPARFSGSGSGTSYSLTISSMEAEDAATYYCQQYHTYPLTFGAGTKLELK | binds | binds
44.19B8.H11 (antibody, V domains shown) VH: QVTLKESGPGILQSSQTLSLTCSFSGFSLSTSSMGVSWIRQPSGKGLEWLAHIYWDDDKRYNPSLKSRLTISKDTSRNQVFLKISNVDTADAATYYCARRAGNFFYFDVWGTGTTVTVSS VL: QIVLTQSPAIMSASPGEKVTISCSASSSVSYMYWYQQKPGSSPKPWIYRTSNLASGVPARFSGSGSGTSYSLTISSMEAEDAATYYCQQYHTYPPTFGGGTKLEIK | binds | binds
44.91D1.E4 (antibody, V domains shown) VH: QVTLKESGPGTLQSSQTLSLTCSFSGFSLNTSTMGVSWIRQPSGKGLEWLAHIYWDDDKRYNPSLKSRLTISKDTSRNQVFLKITSVDTADTATYYCARRRVYDFDFDYWGQGTTLTVSS VL: QIVLTQSPAIMSASPGEKVTISCSASSSVSYMYWYQQKPGSSPKPWIYRTSNLASGVPARFSGSGSGTSYSLTISSMEAEDAATYFCQQYHSYPPTFGGGTKLEIK | binds | binds
48.51A2.B12 (antibody, V domains shown) VH: QVTLKESGPGILQPSQTLSLTCSFSGFSLSTYAMGVGWIRQPSGKGLEWLANIWWDDDKFYNPSLKNRLTISRDTSTNQAFLKITNVDSADTATYYCSRLGVRWSHYFDYWGQGVMVTVSS VL: DIQMTQSPSSLSASLGDRVTITCRASQDIGNFLSWFQQKPGKSPRLMIYGATNLEDGVPSRFSGSRSGSDYSLTISSLESEDTAIYYCLQYEKYFTFGSGTKLEIK | binds | binds
48.26G10.A9 (antibody, V domains shown) VH: QVQLQQSGAELAKPGSSVKISCKASGYTFTTYAMHWIKQTTGQALEWTGYIGPGSGSTWYNENFKGKATLTVDKSSSTAYMQLSSLTPADTAVYYCARGGYSGDDWFAYWGQGTLVTVSS VL: DILMTQSPSSMSASLGDRVTITCQASQDIGNNLIWFQQKPGKSPRRMIYYATNLANGVPSRFSGSRSGSDYSLTIISLESEDMADYHCLQYKQSPLTFGSGTKLEIK | binds | binds
48.74C11.G4 (antibody, V domains shown) VH: EVQLVESGGGLVQPGRSLKLSCAASGFTYSNYVMVWVRQAPTKGLEWVASISAGGDDTYYRDSVKGRFTISRDNAKNTLYLQMDTLRSEDTATYYCARDMGNSGSYCFDYWGQGVMVTVSS VL: DIQMTQSPASLSASLGEIISIECLASEGISSCLAWYQQKPGKSPQLLIYGGNNLQIGVPSRFSGSGSGTQYSLKISNMQPEDEGDYFCQQSYKFPYTFGAGTKLELK | binds | binds
48.73A4.B6 (antibody, V domains shown) VH: EVQLVESGGGLVQPGRSLKLSCVASGFTFNNYWMTWIRQAPGKRLEWVASITDTGGITYYPDSVKGRFTISRDNAKNTLYLQMNSLRSEDTATYYCTRRDLPGYQWDYWGQGVMVTVSS VL: SYELIQPPSASVTLENTVSITCSGDELSNKYALWYQQKPDKTILEVMYKDSERPSGISDRFSGSSSGTTAILTIRDAQAEDEADYYCLSTYSDDDLPVFGGGTKLTVL | binds | binds
48.7C11.D10.D2 (antibody, V domains shown) VH: EVQLVESGGGLVQPGRSMKLSCAALGFTFSNYYMAWVRQAPTKGLEWVASISTGGGITYFRDSVKGRVTLSRDNEKSTLYLQMDSLRSEDTATYYCARHDYGGSYWYFDFWGPGTMVTVSS VL: DIVMTQTPSSQAVSAGEKVTMNCKSSQSLLYNENKKNYLAWYQQKPGQSPKLLIYWASSRESGAPDRFIGSGSGTDFTLTISSVQAEDLAVYYCQQYYNFPYTFGAGTKLELK | binds | binds
